Experimental data from publication PMC8020760, “Assembly of a dsRNA synthesizing complex: RNA-DEPENDENT RNA POLYMERASE 2 contacts the largest subunit of NUCLEAR RNA POLYMERASE IV” (Proceedings of the National Academy of Sciences of the …, 2021).
Results are given in words; binding and its absence hold for the method and conditions named. Some results given as binding are weak or reduced against the parent protein; the word gives no strength. Tags and fused reporters may be left off the sequences shown.

How the values were obtained:
[1] = target: T1, NRPD1 fused to the Gal4 DNA binding domain or the Gal4 activation domain (A. thaliana) (UniProt Q9LQ02); experiment: two-hybrid; yeast two-hybrid, S. cerevisiae MaV203, Gal4 DBD (pDEST32) bait and Gal4 AD (pDEST22) prey, growth on medium lacking Trp, Leu, His with 25 mM 3AT, 3 d at 30 °C
T1 sequence: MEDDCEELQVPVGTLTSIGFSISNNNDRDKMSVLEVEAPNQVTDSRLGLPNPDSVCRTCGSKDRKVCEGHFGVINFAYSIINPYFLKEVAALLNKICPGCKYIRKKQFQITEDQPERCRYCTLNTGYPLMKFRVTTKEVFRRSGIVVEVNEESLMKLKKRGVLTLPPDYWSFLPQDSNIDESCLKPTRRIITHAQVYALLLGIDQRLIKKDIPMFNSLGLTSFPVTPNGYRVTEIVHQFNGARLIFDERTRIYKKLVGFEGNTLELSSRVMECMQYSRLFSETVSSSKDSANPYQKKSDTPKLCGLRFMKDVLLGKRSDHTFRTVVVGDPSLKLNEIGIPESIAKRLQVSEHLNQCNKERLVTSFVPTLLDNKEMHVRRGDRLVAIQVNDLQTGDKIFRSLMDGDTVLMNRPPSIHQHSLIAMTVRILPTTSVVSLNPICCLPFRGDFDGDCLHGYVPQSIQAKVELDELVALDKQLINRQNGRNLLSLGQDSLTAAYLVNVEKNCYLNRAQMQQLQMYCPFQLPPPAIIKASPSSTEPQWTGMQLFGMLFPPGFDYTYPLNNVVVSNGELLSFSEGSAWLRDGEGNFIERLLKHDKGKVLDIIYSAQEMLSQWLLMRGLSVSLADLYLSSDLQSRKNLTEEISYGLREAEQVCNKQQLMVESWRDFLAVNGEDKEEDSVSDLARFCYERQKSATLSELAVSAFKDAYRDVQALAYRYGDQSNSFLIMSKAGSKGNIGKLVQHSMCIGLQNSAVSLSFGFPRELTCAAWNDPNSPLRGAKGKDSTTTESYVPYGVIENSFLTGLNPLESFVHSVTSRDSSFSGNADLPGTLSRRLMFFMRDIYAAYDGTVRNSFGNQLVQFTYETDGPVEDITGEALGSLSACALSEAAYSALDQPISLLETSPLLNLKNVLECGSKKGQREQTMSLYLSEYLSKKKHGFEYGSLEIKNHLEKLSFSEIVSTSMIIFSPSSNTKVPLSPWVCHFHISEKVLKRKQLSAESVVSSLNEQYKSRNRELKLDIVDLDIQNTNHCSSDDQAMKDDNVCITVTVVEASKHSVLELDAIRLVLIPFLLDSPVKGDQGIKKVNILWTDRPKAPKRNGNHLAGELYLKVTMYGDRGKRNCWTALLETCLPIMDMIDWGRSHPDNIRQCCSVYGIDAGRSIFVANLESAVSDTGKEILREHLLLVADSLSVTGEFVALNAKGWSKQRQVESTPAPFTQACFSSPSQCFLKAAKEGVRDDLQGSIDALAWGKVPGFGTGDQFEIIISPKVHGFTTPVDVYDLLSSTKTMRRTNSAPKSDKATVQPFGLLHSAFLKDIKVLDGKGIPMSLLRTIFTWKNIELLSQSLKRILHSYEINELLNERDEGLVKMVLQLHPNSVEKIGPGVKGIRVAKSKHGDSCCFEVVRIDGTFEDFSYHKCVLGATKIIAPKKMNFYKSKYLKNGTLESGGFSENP

[2] = target: T2, RDR2 fused to the Gal4 DNA binding domain or the Gal4 activation domain (A. thaliana) (UniProt O82504); experiment: as above
T2 sequence: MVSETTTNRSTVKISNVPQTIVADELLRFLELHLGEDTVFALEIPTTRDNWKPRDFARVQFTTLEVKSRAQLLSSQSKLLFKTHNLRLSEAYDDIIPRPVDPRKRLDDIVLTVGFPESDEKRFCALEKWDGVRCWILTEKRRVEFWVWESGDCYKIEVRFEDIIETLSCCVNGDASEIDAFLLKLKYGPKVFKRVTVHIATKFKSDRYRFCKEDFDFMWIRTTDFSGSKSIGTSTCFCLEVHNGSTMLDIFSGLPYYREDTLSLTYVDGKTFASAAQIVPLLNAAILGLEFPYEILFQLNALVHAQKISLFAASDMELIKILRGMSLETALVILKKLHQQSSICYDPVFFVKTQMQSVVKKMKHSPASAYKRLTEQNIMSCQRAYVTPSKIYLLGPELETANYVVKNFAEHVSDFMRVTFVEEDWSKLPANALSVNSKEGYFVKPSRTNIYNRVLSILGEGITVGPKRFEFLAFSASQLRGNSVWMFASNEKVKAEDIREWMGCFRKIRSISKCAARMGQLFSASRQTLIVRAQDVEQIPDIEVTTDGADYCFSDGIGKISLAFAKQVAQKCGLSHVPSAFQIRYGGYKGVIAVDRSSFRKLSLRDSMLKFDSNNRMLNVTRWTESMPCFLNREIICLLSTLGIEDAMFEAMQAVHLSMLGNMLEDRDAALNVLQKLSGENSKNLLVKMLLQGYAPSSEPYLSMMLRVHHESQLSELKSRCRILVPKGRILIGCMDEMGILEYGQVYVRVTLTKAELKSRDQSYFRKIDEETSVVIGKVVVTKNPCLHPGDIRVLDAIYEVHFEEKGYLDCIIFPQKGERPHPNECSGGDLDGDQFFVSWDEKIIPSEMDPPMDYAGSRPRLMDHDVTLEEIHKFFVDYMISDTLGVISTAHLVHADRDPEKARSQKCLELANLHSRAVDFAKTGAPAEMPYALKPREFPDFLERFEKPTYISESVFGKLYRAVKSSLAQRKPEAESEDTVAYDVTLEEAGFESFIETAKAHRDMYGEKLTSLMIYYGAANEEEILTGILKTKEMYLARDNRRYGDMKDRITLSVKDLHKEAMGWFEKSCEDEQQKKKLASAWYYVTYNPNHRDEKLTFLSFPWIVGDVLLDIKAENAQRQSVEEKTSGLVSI

B1: RDR2 fused to the Gal4 DNA binding domain or the Gal4 activation domain (protein, UniProt O82504 1-1133)
chain: MVSETTTNRSTVKISNVPQTIVADELLRFLELHLGEDTVFALEIPTTRDNWKPRDFARVQFTTLEVKSRAQLLSSQSKLLFKTHNLRLSEAYDDIIPRPVDPRKRLDDIVLTVGFPESDEKRFCALEKWDGVRCWILTEKRRVEFWVWESGDCYKIEVRFEDIIETLSCCVNGDASEIDAFLLKLKYGPKVFKRVTVHIATKFKSDRYRFCKEDFDFMWIRTTDFSGSKSIGTSTCFCLEVHNGSTMLDIFSGLPYYREDTLSLTYVDGKTFASAAQIVPLLNAAILGLEFPYEILFQLNALVHAQKISLFAASDMELIKILRGMSLETALVILKKLHQQSSICYDPVFFVKTQMQSVVKKMKHSPASAYKRLTEQNIMSCQRAYVTPSKIYLLGPELETANYVVKNFAEHVSDFMRVTFVEEDWSKLPANALSVNSKEGYFVKPSRTNIYNRVLSILGEGITVGPKRFEFLAFSASQLRGNSVWMFASNEKVKAEDIREWMGCFRKIRSISKCAARMGQLFSASRQTLIVRAQDVEQIPDIEVTTDGADYCFSDGIGKISLAFAKQVAQKCGLSHVPSAFQIRYGGYKGVIAVDRSSFRKLSLRDSMLKFDSNNRMLNVTRWTESMPCFLNREIICLLSTLGIEDAMFEAMQAVHLSMLGNMLEDRDAALNVLQKLSGENSKNLLVKMLLQGYAPSSEPYLSMMLRVHHESQLSELKSRCRILVPKGRILIGCMDEMGILEYGQVYVRVTLTKAELKSRDQSYFRKIDEETSVVIGKVVVTKNPCLHPGDIRVLDAIYEVHFEEKGYLDCIIFPQKGERPHPNECSGGDLDGDQFFVSWDEKIIPSEMDPPMDYAGSRPRLMDHDVTLEEIHKFFVDYMISDTLGVISTAHLVHADRDPEKARSQKCLELANLHSRAVDFAKTGAPAEMPYALKPREFPDFLERFEKPTYISESVFGKLYRAVKSSLAQRKPEAESEDTVAYDVTLEEAGFESFIETAKAHRDMYGEKLTSLMIYYGAANEEEILTGILKTKEMYLARDNRRYGDMKDRITLSVKDLHKEAMGWFEKSCEDEQQKKKLASAWYYVTYNPNHRDEKLTFLSFPWIVGDVLLDIKAENAQRQSVEEKTSGLVSI
- binding [1]: binds

B2: NRPD1 fused to the Gal4 DNA binding domain or the Gal4 activation domain (protein, UniProt Q9LQ02 1-1453)
chain: MEDDCEELQVPVGTLTSIGFSISNNNDRDKMSVLEVEAPNQVTDSRLGLPNPDSVCRTCGSKDRKVCEGHFGVINFAYSIINPYFLKEVAALLNKICPGCKYIRKKQFQITEDQPERCRYCTLNTGYPLMKFRVTTKEVFRRSGIVVEVNEESLMKLKKRGVLTLPPDYWSFLPQDSNIDESCLKPTRRIITHAQVYALLLGIDQRLIKKDIPMFNSLGLTSFPVTPNGYRVTEIVHQFNGARLIFDERTRIYKKLVGFEGNTLELSSRVMECMQYSRLFSETVSSSKDSANPYQKKSDTPKLCGLRFMKDVLLGKRSDHTFRTVVVGDPSLKLNEIGIPESIAKRLQVSEHLNQCNKERLVTSFVPTLLDNKEMHVRRGDRLVAIQVNDLQTGDKIFRSLMDGDTVLMNRPPSIHQHSLIAMTVRILPTTSVVSLNPICCLPFRGDFDGDCLHGYVPQSIQAKVELDELVALDKQLINRQNGRNLLSLGQDSLTAAYLVNVEKNCYLNRAQMQQLQMYCPFQLPPPAIIKASPSSTEPQWTGMQLFGMLFPPGFDYTYPLNNVVVSNGELLSFSEGSAWLRDGEGNFIERLLKHDKGKVLDIIYSAQEMLSQWLLMRGLSVSLADLYLSSDLQSRKNLTEEISYGLREAEQVCNKQQLMVESWRDFLAVNGEDKEEDSVSDLARFCYERQKSATLSELAVSAFKDAYRDVQALAYRYGDQSNSFLIMSKAGSKGNIGKLVQHSMCIGLQNSAVSLSFGFPRELTCAAWNDPNSPLRGAKGKDSTTTESYVPYGVIENSFLTGLNPLESFVHSVTSRDSSFSGNADLPGTLSRRLMFFMRDIYAAYDGTVRNSFGNQLVQFTYETDGPVEDITGEALGSLSACALSEAAYSALDQPISLLETSPLLNLKNVLECGSKKGQREQTMSLYLSEYLSKKKHGFEYGSLEIKNHLEKLSFSEIVSTSMIIFSPSSNTKVPLSPWVCHFHISEKVLKRKQLSAESVVSSLNEQYKSRNRELKLDIVDLDIQNTNHCSSDDQAMKDDNVCITVTVVEASKHSVLELDAIRLVLIPFLLDSPVKGDQGIKKVNILWTDRPKAPKRNGNHLAGELYLKVTMYGDRGKRNCWTALLETCLPIMDMIDWGRSHPDNIRQCCSVYGIDAGRSIFVANLESAVSDTGKEILREHLLLVADSLSVTGEFVALNAKGWSKQRQVESTPAPFTQACFSSPSQCFLKAAKEGVRDDLQGSIDALAWGKVPGFGTGDQFEIIISPKVHGFTTPVDVYDLLSSTKTMRRTNSAPKSDKATVQPFGLLHSAFLKDIKVLDGKGIPMSLLRTIFTWKNIELLSQSLKRILHSYEINELLNERDEGLVKMVLQLHPNSVEKIGPGVKGIRVAKSKHGDSCCFEVVRIDGTFEDFSYHKCVLGATKIIAPKKMNFYKSKYLKNGTLESGGFSENP
- binding [2]: binds
